{
  "source": "patent US9370587B2",
  "about": "“Coloring substance for diagnostic ophtalmologic use” (IROS R.C. S.r.l., priority 2012, dated 2016)",
  "experiment": "Quality of semicircles displayed with Goldmann tonometer",
  "type": "in vivo, human",
  "text": "Preferably, an aqueous solution of the substance according to the present invention with a concentration of at least 0.01% will be used, in order to have semicircles with a minimum thickness that allows easy viewing.",
  "data": [
    {"smiles": "Cc1cc2nc3c(=O)[nH]c(=O)nc-3n(C[C@H](O)[C@H](O)[C@H](O)CO)c2cc1C", "note": "[riboflavin]", "values": [
      {"measurement": "appearance of semicircles", "setting": "Goldmann tonometer, riboflavin instead of fluorescein", "value": "surprisingly regular circular semicircles, with edges of constant thickness and substantially free of smears"},
      {"measurement": "appearance of semicircles", "setting": "high concentration aqueous solution of riboflavin (0.5%)", "value": "relatively thick but well-defined semicircles"}
    ]}
  ]
}
